Results are given in words; binding and its absence hold for the method and conditions named. In cells and extracts the contact can be indirect. Binding can be weak; no strength is given.

The values that follow come from PMC10857777.

For this experiment, the target named is T1, Glycerol-3-phosphate acyltransferase 3 (human (endogenous in HCT-116)) (UniProt Q53EU6).
T1 sequence: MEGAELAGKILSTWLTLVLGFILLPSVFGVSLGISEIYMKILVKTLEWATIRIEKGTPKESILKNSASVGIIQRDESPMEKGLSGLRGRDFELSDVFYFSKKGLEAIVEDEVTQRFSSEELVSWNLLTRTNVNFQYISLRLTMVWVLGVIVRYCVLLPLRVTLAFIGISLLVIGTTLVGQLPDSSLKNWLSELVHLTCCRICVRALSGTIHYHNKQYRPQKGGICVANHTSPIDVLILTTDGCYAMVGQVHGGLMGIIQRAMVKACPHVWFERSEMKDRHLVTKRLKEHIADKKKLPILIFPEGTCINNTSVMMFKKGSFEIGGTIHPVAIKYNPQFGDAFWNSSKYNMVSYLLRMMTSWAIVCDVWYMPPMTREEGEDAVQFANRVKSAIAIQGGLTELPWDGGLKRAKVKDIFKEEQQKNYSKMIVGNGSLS
Put plainly: co-IP; endogenous proteins; cells lysed with NP-40 lysis buffer; Protein A&G magnetic beads; anti-rabbit and mouse IgG as negative controls; immunoblot. A general note: In western blotting, separated proteins are transferred to a membrane and probed.

For “SIRT3 (human (endogenous in HCT-116)) (enzyme)”, the binding result is listed as “binds”.
